The supplement of paper PMC12823440, “Inhibitors supercharge kinase turnover through native proteolytic circuits” (Nature, 2025)
Where a name gives a salt, the structure may show the parent alone. Some of the results follow. The calls rarely recur for the same compound in another form.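 Kinases were expressed as nanoluciferase fusions in K562 cells and luminescence was read every 4 h between 2 and 18 h as percent of control, DMSO set to 100% and a positive control to 0%. A time point counts as decreased when the signal drops significantly (2 sigma). The hit call is the authors' own, does not follow from the count of time points alone, and its rule is not shown.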

By UniProt entry, the sequences of proteins in these tests, tags left out. Where a name states a change or a piece, a line headed by the entry shows the natural chain unless it says otherwise.
UniProt P48729: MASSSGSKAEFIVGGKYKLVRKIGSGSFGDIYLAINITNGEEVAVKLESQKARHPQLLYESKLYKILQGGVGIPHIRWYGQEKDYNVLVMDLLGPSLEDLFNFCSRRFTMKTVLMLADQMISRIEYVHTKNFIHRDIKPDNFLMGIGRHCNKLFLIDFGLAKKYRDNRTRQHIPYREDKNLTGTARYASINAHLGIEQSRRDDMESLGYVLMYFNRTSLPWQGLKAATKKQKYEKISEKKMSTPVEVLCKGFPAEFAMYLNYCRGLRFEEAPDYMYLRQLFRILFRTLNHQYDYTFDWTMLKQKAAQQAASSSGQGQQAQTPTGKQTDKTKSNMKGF
UniProt P48730: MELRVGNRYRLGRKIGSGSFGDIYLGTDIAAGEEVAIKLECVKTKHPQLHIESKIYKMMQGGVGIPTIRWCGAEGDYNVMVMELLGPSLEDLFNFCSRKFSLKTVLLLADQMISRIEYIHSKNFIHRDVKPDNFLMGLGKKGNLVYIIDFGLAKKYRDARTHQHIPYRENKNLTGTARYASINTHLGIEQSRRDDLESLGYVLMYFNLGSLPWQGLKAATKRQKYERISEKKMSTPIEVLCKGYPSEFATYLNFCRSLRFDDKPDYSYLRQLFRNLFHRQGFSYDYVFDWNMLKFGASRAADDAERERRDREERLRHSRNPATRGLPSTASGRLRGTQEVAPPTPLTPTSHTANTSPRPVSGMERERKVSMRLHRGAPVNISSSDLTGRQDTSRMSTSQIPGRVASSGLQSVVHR
UniProt Q92630: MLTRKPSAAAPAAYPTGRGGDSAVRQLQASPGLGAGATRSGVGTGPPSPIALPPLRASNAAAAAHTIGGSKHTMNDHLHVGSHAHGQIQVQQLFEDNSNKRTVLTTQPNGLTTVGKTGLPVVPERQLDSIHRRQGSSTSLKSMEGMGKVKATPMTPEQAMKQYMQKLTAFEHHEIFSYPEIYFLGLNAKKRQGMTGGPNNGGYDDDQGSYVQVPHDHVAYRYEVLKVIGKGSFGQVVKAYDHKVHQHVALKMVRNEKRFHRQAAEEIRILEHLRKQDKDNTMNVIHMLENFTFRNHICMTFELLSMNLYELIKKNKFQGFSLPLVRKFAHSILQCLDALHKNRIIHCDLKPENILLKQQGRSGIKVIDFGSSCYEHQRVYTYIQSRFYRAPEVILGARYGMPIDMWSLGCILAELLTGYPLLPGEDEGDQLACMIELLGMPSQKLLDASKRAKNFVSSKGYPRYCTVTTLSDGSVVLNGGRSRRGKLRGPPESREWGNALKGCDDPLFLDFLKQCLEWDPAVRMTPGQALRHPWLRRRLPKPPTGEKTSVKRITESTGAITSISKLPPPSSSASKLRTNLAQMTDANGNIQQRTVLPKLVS
UniProt P29317, whole entry: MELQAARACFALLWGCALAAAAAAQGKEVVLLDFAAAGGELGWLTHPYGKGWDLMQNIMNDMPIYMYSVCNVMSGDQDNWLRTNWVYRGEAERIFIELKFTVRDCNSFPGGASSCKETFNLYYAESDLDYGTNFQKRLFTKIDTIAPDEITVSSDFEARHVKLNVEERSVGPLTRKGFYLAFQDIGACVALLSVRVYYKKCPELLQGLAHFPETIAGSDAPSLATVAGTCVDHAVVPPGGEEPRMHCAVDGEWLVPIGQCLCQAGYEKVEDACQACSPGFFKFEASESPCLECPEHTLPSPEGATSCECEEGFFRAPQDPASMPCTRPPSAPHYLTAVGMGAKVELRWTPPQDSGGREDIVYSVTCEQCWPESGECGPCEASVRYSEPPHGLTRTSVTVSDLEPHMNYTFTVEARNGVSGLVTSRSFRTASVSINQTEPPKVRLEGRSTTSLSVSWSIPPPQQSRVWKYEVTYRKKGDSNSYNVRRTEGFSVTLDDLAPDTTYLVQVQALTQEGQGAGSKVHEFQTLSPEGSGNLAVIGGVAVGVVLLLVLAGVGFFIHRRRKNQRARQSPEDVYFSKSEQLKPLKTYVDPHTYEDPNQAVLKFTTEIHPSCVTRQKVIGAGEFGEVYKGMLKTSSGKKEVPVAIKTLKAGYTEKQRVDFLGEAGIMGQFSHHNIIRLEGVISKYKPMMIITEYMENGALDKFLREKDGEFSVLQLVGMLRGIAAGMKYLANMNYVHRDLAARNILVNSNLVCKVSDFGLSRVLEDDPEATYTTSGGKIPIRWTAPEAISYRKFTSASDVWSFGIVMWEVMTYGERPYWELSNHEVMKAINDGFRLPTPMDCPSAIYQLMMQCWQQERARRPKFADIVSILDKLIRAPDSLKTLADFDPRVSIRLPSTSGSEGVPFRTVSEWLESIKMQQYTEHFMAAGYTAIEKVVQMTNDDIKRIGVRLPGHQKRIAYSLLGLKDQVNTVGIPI
UniProt Q15303, whole entry R711C: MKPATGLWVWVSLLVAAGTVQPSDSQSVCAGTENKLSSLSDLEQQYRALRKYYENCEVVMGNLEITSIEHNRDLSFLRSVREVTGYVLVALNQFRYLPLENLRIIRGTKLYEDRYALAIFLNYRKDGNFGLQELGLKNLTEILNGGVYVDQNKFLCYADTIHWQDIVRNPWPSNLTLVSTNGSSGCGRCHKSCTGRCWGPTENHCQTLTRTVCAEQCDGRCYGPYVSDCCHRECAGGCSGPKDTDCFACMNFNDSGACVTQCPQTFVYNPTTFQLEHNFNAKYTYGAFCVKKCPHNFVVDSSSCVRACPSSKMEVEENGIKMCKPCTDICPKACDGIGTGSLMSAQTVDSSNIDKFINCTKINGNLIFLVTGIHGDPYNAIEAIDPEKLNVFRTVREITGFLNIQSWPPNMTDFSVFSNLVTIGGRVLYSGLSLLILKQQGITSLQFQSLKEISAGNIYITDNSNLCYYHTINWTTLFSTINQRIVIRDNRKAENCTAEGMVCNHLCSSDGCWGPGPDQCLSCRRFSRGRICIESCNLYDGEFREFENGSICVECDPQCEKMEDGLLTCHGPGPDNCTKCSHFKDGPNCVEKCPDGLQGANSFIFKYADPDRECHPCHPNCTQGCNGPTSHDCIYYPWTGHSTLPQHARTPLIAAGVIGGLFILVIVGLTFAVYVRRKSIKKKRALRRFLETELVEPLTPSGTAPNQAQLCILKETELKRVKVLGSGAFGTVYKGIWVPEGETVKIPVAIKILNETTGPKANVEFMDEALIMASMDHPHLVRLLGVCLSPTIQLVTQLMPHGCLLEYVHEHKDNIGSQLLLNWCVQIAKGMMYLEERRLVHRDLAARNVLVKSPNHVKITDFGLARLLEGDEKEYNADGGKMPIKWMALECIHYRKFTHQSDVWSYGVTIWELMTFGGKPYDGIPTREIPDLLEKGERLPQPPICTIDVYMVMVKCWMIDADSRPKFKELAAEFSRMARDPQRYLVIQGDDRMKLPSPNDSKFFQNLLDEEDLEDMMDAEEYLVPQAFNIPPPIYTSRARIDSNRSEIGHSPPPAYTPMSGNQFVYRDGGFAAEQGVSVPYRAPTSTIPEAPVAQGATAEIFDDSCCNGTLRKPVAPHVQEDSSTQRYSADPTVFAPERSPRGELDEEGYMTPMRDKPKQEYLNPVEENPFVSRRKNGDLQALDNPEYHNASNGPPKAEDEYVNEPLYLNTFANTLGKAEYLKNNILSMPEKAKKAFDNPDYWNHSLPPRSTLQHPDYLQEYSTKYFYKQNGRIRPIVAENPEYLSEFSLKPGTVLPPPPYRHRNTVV
UniProt P11362, whole entry, looked up: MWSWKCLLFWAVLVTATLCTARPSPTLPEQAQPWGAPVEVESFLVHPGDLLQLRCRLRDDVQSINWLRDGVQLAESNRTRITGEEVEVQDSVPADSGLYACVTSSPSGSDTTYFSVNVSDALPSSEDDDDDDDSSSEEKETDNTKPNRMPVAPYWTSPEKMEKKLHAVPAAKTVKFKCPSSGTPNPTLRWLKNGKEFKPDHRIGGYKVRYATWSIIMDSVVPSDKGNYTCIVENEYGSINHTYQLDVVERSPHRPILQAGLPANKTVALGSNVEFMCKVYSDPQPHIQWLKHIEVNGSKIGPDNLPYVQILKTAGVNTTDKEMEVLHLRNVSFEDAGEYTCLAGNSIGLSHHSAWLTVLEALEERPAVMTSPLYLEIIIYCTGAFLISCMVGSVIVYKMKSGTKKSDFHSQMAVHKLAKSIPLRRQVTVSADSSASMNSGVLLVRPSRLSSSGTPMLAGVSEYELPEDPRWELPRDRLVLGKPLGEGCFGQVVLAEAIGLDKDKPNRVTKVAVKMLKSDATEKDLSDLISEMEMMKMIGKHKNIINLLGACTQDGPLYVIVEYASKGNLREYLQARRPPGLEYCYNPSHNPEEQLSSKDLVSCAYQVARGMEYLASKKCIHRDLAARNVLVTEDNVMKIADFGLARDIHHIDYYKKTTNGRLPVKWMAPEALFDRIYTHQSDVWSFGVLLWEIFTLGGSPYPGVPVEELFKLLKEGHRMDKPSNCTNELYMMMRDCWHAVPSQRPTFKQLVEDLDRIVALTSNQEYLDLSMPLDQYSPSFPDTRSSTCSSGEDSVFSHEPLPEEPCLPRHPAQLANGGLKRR
UniProt P21802, whole entry, looked up: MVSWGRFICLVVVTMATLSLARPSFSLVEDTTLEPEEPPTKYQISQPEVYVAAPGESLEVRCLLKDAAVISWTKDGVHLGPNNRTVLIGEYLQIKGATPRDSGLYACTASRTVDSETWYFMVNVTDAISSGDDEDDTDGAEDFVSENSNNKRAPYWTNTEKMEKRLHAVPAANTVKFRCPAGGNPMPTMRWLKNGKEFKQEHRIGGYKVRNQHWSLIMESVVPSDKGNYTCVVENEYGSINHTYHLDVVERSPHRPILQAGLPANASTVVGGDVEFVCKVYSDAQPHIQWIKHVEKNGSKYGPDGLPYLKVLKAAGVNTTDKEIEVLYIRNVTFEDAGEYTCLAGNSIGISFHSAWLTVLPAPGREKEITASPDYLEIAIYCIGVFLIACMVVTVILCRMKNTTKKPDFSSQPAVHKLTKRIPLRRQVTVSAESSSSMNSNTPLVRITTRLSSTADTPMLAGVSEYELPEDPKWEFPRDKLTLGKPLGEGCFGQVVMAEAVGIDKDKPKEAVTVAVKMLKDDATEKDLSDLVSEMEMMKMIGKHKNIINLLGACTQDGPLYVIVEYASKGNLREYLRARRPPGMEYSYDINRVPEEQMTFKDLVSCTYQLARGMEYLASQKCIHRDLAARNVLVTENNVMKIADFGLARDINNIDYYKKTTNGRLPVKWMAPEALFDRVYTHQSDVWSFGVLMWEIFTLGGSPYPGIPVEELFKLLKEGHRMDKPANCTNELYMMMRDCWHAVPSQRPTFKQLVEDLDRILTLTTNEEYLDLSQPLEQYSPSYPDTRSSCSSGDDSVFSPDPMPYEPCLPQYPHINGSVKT
UniProt P22607, whole entry, looked up: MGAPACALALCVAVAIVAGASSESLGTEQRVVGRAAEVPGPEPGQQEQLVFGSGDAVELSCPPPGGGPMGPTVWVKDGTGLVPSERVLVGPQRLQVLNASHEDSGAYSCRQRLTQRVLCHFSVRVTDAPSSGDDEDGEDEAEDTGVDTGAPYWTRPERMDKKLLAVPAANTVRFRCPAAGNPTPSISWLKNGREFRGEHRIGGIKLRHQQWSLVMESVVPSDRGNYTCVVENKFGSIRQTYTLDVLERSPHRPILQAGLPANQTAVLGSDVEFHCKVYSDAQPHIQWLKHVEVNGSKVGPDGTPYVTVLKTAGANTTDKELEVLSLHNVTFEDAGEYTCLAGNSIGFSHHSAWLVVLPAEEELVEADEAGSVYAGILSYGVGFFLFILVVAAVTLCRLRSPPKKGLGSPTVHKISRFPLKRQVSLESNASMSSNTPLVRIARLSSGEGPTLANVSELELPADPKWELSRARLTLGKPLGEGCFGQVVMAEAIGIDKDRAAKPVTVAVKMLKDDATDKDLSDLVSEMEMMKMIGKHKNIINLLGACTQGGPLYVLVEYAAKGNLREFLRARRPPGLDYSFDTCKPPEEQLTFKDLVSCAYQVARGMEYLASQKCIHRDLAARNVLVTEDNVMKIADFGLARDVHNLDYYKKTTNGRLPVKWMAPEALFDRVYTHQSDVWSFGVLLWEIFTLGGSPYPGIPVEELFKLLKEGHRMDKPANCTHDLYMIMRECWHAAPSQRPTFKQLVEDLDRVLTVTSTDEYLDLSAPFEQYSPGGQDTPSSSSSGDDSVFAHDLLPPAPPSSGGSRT

What was measured:
Assay in all cases: number of time points (of 5) at which kinase-Nluc abundance scored as decreased, DMSO-normalised (count); higher = more persistent destabilization
Details in all cases: K562; 2-18 h
[1] = molecular target: CSNK1A1 (UniProt P48729)
[2] = molecular target: CSNK1D (UniProt P48730)
[3] = molecular target: DDR1 (UniProt Q08345)
[4] = molecular target: DYRK1B (UniProt Q9Y463)
[5] = molecular target: DYRK2 (UniProt Q92630)
[6] = molecular target: EGFR (UniProt P00533)
[7] = molecular target: EGFR_G719S (UniProt P00533)
[8] = molecular target: EGFR_G719S_T790M (UniProt P00533)
[9] = molecular target: EGFR_L718V (UniProt P00533)
[10] = molecular target: EGFR_L858R (UniProt P00533)
[11] = molecular target: EGFR_L861Q (UniProt P00533)
[12] = molecular target: EGFR_T790M (UniProt P00533)
[13] = molecular target: EPHA2 (UniProt P29317)
[14] = molecular target: ERBB3 (UniProt P21860)
[15] = molecular target: ERBB4_R711C (clone: ERBB4_mut) (UniProt Q15303)
[16] = molecular target: ERN1 (UniProt O75460)
[17] = molecular target: FGFR1 (UniProt P11362)
[18] = molecular target: FGFR2 (UniProt P21802)
[19] = molecular target: FGFR3 (UniProt P22607)
[20] = molecular target: FGR (UniProt P09769)

| Structure (SMILES) | number of time points [1] | number of time points [2] | number of time points [3] | number of time points [4] | number of time points [5] | number of time points [6] | number of time points [7] | number of time points [8] | number of time points [9] | number of time points [10] | number of time points [11] | number of time points [12] | number of time points [13] | number of time points [14] | number of time points [15] | number of time points [16] | number of time points [17] | number of time points [18] | number of time points [19] | number of time points [20] |
| --- | --- | --- | --- | --- | --- | --- | --- | --- | --- | --- | --- | --- | --- | --- | --- | --- | --- | --- | --- | --- |
| CCOC(=O)N1C/C(=C/c2ccccc2F)C(=O)/C(=C\c2ccccc2F)C1 (2.5 µM) | 0 | 0 | 0 | 0 | 0 | 0 | 0 | 0 | 0 | 0 | 0 | 0 | 0 | 0 | 0 | 0 | 0 | 0 | 0 | 0 |
| O=C(Nc1nc(=O)n(Cc2ccc(Cl)cc2)s1)c1ccc(Cl)cc1 (10 µM) | 0 | 0 | 0 | 0 | 0 | 0 | 0 | 0 | 0 | 0 | 0 | 0 | 0 | 0 | 0 | 0 | 0 | 0 | 0 | 0 |
| O=C(Nc1nc2ccccc2[nH]1)c1cccc([N+](=O)[O-])c1 [IRAK-4 protein kinase inhibitor 2] (10 µM) | 0 | 0 | 0 | 0 | 0 | 0 | 0 | 0 | 0 | 0 | 0 | 0 | 0 | 0 | 0 | 0 | 0 | 0 | 0 | 0 |
| COc1ccccc1C(=O)/C=C/c1ccccc1C(=O)O (10 µM) | 0 | 0 | 0 | 0 | 0 | 0 | 0 | 0 | 0 | 0 | 0 | 0 | 0 | 0 | 0 | 0 | 0 | 0 | 0 | 0 |
| Cc1cnc(-c2ccc(-c3ccc(NC(=O)Nc4cccc(C(F)(F)F)c4)cc3F)c3c2C(=O)NC3)[nH]1 (10 µM) | 3 | 0 | 0 | 0 | 0 | 0 | 3 | 0 | 0 | 0 | 3 | 0 | 0 | 0 | 1 | 0 | 0 | 2 | 1 | 0 |
| COc1cc(N2CCOCC2)ccc1NC(=O)c1csc(-c2cccnc2)n1 [IRAK inhibitor 6] (10 µM) | 0 | 0 | 0 | 0 | 0 | 0 | 0 | 0 | 0 | 0 | 0 | 0 | 0 | 0 | 0 | 0 | 0 | 0 | 0 | 0 |
| O=C1O[C@H]([C@@H](O)CO)C(O)=C1OP(=O)(O)O [2-Phospho-L-ascorbic acid (trisodium)] (10 µM) | 0 | 0 | 0 | 0 | 0 | 0 | 0 | 0 | 0 | 0 | 0 | 0 | 0 | 0 | 0 | 0 | 2 | 0 | 0 | 0 |
| CCN(CC)c1ccc2cc(-c3nc4cc(C)ccc4o3)c(=O)oc2c1 (10 µM) | 0 | 0 | 0 | 0 | 0 | 2 | 0 | 0 | 0 | 0 | 0 | 0 | 0 | 0 | 0 | 0 | 0 | 0 | 0 | 0 |
| CNc1nc(Nc2ccc(C(=O)N3CCOCC3)cc2OC)ncc1Cl (2.5 µM) | 0 | 0 | 0 | 0 | 0 | 0 | 0 | 0 | 0 | 0 | 0 | 0 | 0 | 0 | 0 | 0 | 0 | 0 | 0 | 0 |
| CC(C)(C[C@H](N)C(=O)O)C(F)F [NV-5138 (hydrochloride)] (10 µM) | 0 | 0 | 0 | 0 | 0 | 0 | 0 | 0 | 0 | 0 | 0 | 0 | 0 | 0 | 0 | 0 | 0 | 0 | 0 | 0 |
| Cc1ncc(NC(=O)NC2c3ccccc3-c3ccccc32)c(-c2ccccc2)n1 (10 µM) | 0 | 0 | 0 | 0 | 0 | 0 | 0 | 0 | 0 | 0 | 0 | 0 | 0 | 0 | 0 | 0 | 0 | 0 | 0 | 0 |
| Nc1n[nH]c2nc(-c3ccc(NS(=O)(=O)c4cc(Cl)ccc4F)cc3)cnc12 (10 µM) | 0 | 0 | 5 | 0 | 0 | 0 | 0 | 0 | 0 | 0 | 0 | 5 | 0 | 0 | 0 | 0 | 0 | 0 | 0 | 0 |
| C=CC(=O)N1CCC[C@H](n2c(=O)n(-c3ccc(Oc4ccccc4)cc3)c3c(N)ncnc32)C1 [ONO-4059 (analog)] (10 µM) | 0 | 0 | 0 | 0 | 0 | 0 | 0 | 0 | 0 | 0 | 0 | 0 | 0 | 0 | 0 | 0 | 0 | 0 | 0 | 0 |
| Cc1nc(-c2cnn(C)c2)nc2c1[nH]c1ncc(-c3ccc(N4CCN(C)CC4)cc3)cc12 [GNE 220 (hydrochloride)] (10 µM) | 0 | 0 | 0 | 0 | 0 | 0 | 0 | 0 | 0 | 0 | 0 | 0 | 0 | 0 | 0 | 0 | 0 | 0 | 0 | 0 |
| C[C@H](Nc1ncnc2[nH]cnc12)c1cc2ccc(F)cc2nc1-c1ccccn1 (10 µM) | 0 | 0 | 0 | 0 | 0 | 0 | 0 | 0 | 0 | 0 | 0 | 0 | 0 | 0 | 0 | 0 | 0 | 0 | 0 | 0 |
| COc1cc(N(C)CCN(C)C)c(N)cc1Nc1nccc(-c2cn(C)c3ccccc23)n1 [Mutated EGFR-IN-1] (10 µM) | 0 | 0 | 0 | 0 | 0 | 0 | 0 | 0 | 0 | 0 | 1 | 0 | 0 | 0 | 0 | 0 | 0 | 0 | 0 | 0 |
| O[C@@H]1CO[C@H]2[C@@H]1OC[C@H]2Oc1nc2nc(-c3ccc(-c4ccccc4)cc3)c(Cl)cc2[nH]1 (10 µM) | 0 | 0 | 0 | 0 | 2 | 0 | 0 | 1 | 0 | 0 | 0 | 0 | 0 | 1 | 1 | 0 | 0 | 0 | 0 | 0 |
| C[C@@H]1CN(c2cc(-c3n[nH]c4ccc(OC5(C)CC5)cc34)ncn2)C[C@H](C)O1 (10 µM) | 0 | 0 | 1 | 0 | 0 | 0 | 0 | 0 | 0 | 0 | 0 | 0 | 0 | 0 | 0 | 0 | 0 | 0 | 0 | 0 |
| CCN(CC)c1cc2oc(=O)c(-c3nc4ccccc4o3)cc2cc1C (2.5 µM) | 0 | 0 | 0 | 0 | 0 | 1 | 0 | 0 | 0 | 0 | 0 | 0 | 0 | 0 | 0 | 0 | 0 | 0 | 0 | 0 |
| O=C(Nc1cccc(Nc2ncc(Br)c(NCCc3cnc[nH]3)n2)c1)N1CCCC1 (10 µM) | 0 | 0 | 4 | 0 | 4 | 0 | 1 | 0 | 0 | 1 | 2 | 0 | 0 | 3 | 3 | 0 | 0 | 2 | 0 | 0 |
| COc1ccc(/C=C/C(=O)C2(C(=O)/C=C/c3ccc(OC)c(OC)c3)CCCCC2)cc1OC (2.5 µM) | 0 | 0 | 0 | 0 | 2 | 0 | 0 | 0 | 0 | 0 | 0 | 0 | 0 | 2 | 0 | 0 | 0 | 0 | 0 | 0 |
| CCc1ccc(OCC(=O)Nc2ccc(F)c([N+](=O)[O-])c2)cc1 (10 µM) | 0 | 0 | 0 | 0 | 0 | 0 | 0 | 0 | 0 | 0 | 0 | 0 | 0 | 0 | 0 | 0 | 0 | 0 | 0 | 0 |
| CCCCCCCCCCCCCCCCOP(=O)([O-])OCC[N+](C)(C)C [Miltefosine] (10 µM) | 0 | 0 | 0 | 0 | 0 | 0 | 0 | 0 | 0 | 0 | 0 | 0 | 0 | 0 | 0 | 0 | 0 | 0 | 0 | 0 |
| Cc1cccc(-c2[nH]c(C(C)(C)C)nc2-c2ccc3nccnc3c2)n1 (10 µM) | 0 | 0 | 0 | 0 | 0 | 0 | 0 | 0 | 0 | 0 | 0 | 0 | 0 | 0 | 0 | 0 | 0 | 0 | 0 | 0 |
| COc1cc2ncnc(Nc3ccc(F)c(Cl)c3)c2cc1NC(=O)/C=C/CN1CCCCC1 [Dacomitinib] (10 µM) | 0 | 0 | 0 | 0 | 0 | 0 | 0 | 0 | 0 | 0 | 0 | 0 | 0 | 0 | 0 | 0 | 0 | 0 | 0 | 0 |

Fetched by structure from above, 2 records:

| Structure (SMILES) | number of time points [1] | number of time points [2] | number of time points [3] | number of time points [4] | number of time points [5] | number of time points [6] | number of time points [7] | number of time points [8] | number of time points [9] | number of time points [10] | number of time points [11] | number of time points [12] | number of time points [13] | number of time points [14] | number of time points [15] | number of time points [16] | number of time points [17] | number of time points [18] | number of time points [19] | number of time points [20] |
| --- | --- | --- | --- | --- | --- | --- | --- | --- | --- | --- | --- | --- | --- | --- | --- | --- | --- | --- | --- | --- |
| COc1cc2ncnc(Nc3ccc(F)c(Cl)c3)c2cc1NC(=O)/C=C/CN1CCCCC1 [Dacomitinib] (10 µM) | 0 | 0 | 0 | 0 | 0 | 0 | 0 | 0 | 0 | 0 | 0 | 0 | 0 | 0 | 0 | 0 | 0 | 0 | 0 | 0 |
| COc1cc(N2CCOCC2)ccc1NC(=O)c1csc(-c2cccnc2)n1 [IRAK inhibitor 6] (10 µM) | 0 | 0 | 0 | 0 | 0 | 0 | 0 | 0 | 0 | 0 | 0 | 0 | 0 | 0 | 0 | 0 | 0 | 0 | 0 | 0 |
